# ± gives the standard deviation. The list shows a part of the results, in another mix than the full data. The uncertainty is large for many entries.
# System: MIWI (PIWIL1) piRISC loaded with L1MC piRNA (30 nt)
# Experiment: pre-steady-state target cleavage rate (min^-1); MIWI and MILI are mouse PIWI proteins and EfPiwi is from a freshwater sponge; tags in brackets are library labels; higher = faster piRNA-guided slicing of the target
# Settings: guide: L1MC piRNA 5'p-UAACUAAAUACUAUGCAAGCUGUAGGUCCU
# How it was run: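 The pre-steady-state cleavage rate was obtained by Cleave-'n-Seq with a burst-and-steady-state fit. A transcribed, DNA-blocked target RNA library (0.1 nM) was mixed with 1 nM active affinity-purified piRISC carrying one synthetic guide, with or without 500 nM GTSF1 partner protein, in HEPES–potassium acetate buffer at 33 °C for 0–8 or 0–960 min. Uncleaved targets were sequenced and normalised to depth and to weakly complementary targets, with three trials pooled and k3 capped at 0.0001 min^-1.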
# [1] = auxiliary factor: 500 nM mouse GTSF1
# [2] = auxiliary factor: none (no GTSF1)
Sequence,pre-steady-state target cleavage rate [1],pre-steady-state target cleavage rate [2]
UGGACCUACAGCUUGCAAUCUAUUUACAAA,0.00236 ± 0.0045,0.000202 ± 0.014
AGGACCUACAGCCUGCAUAGUAUUUAGUUA,1.51 ± 0.063,0.0892 ± 0.017
UGCACCUACAGGUUGCAUAGUAUUUAGUUA,0.859 ± 0.15,0.0244 ± 0.0052
UCCUGGAUCUAGCUUGCAUAGUAUUUAGUUA,0.86 ± 0.04,0.0445 ± 0.011
UCGUCGUACAGCUUGCAUAGUAUUUAGUUA,1.31 ± 0.067,0.0685 ± 0.012
UCCACGUACAGCUUGGAUAGUAUUUAGUUA,1.14 ± 0.065,0.0509 ± 0.0081
UCCACCUUCAGGUUGCAUAGUAUUUAGUUA,0.817 ± 0.1,0.0279 ± 0.0047
UGGAGCUACAGCUUCCAUAGUAUUUAGUUA,0.275 ± 0.047,0.00584 ± 0.0013
UCGAGCUACAGCUUGCAUAGUAUUUAGAAA,0.407 ± 0.039,0.0061 ± 0.0023
UCCUGGAUGUCGAUGCAUAGUAUUUAGUAA,0.00302 ± 0.004,0.00107 ± 0.0044
AGGACCUAGUGCUUGCAUAGUAUUUAGUAA,0.457 ± 0.051,0.0314 ± 0.0063
UCCACCUACACCUUGCAUAGUAUAUAGUUA,0.543 ± 0.068,0.025 ± 0.0054
UCCACCAACAGCUUGCAUAGUAUUUAGUUA,1.06 ± 0.037,0.0618 ± 0.011
UGGACCUACAGCUUGCGUAGUAUUUAGUUA,1.79 ± 0.11,0.0538 ± 0.01
UCCUGGAUGUCCUUGCAUAGUAGUUUAGUUA,0.00343 ± 0.004,0.0018 ± 0.0041
UGGAGCUACAGCUUGCUUAGUAUUUAGUUA,1.33 ± 0.062,0.0391 ± 0.0074
UCCUGGAUGUCGAACCAUACAUUUUAGUUA,0.000198 ± 0.015,0.000113 ± 0.044
UGGACCUACAGCUUGCAUAGUAUUUCGUUA,0.411 ± 0.054,0.0397 ± 0.0067
UGGACCUACAGGUUGCAAAGUAUUUAGUUA,1.33 ± 0.082,0.02 ± 0.0043
AGGACCUACAGCUUGCAUAGUAUUUAAUUA,0.357 ± 0.033,0.0325 ± 0.0055
UCGACCUACAGCUUGCAUAGUAUUCUAGUUA,0.882 ± 0.094,0.0316 ± 0.0072
UCCACCUUACAGCUUGCAUAGUAUUUAGUUA,1.03 ± 0.043,0.0654 ± 0.013
UCCUGGAUCAGCUUGGAUAGUAUUUAGUUA,0.775 ± 0.064,0.0476 ± 0.0092
UGCACCUAGAGCUUGCAUAGUAUUUAGUUA,1.2 ± 0.25,0.0155 ± 0.0045
UCCUGGAACAGCUGCAUAGUAUUUAGUUA,0.767 ± 0.044,0.00757 ± 0.0034
AGGACCUACAGCUUGGAUAGUAUUUAGAUA,0.527 ± 0.057,0.0218 ± 0.0053
UCGACCAACAGCUUGCAUAGUAUUUAGAUA,0.54 ± 0.029,0.0297 ± 0.0066
UCCACCUAUCAGCUUGCAUAGUAUUUAGUUA,1.01 ± 0.037,0.0531 ± 0.011

# Nothing new here: entries from further up.
Sequence,pre-steady-state target cleavage rate [1],pre-steady-state target cleavage rate [2]
UCCUGGAUCUAGCUUGCAUAGUAUUUAGUUA,0.86 ± 0.04,0.0445 ± 0.011
UCGUCGUACAGCUUGCAUAGUAUUUAGUUA,1.31 ± 0.067,0.0685 ± 0.012
UCCACGUACAGCUUGGAUAGUAUUUAGUUA,1.14 ± 0.065,0.0509 ± 0.0081
UCCACCUUCAGGUUGCAUAGUAUUUAGUUA,0.817 ± 0.1,0.0279 ± 0.0047
UGGAGCUACAGCUUCCAUAGUAUUUAGUUA,0.275 ± 0.047,0.00584 ± 0.0013
UCGAGCUACAGCUUGCAUAGUAUUUAGAAA,0.407 ± 0.039,0.0061 ± 0.0023
UCCUGGAUGUCGAUGCAUAGUAUUUAGUAA,0.00302 ± 0.004,0.00107 ± 0.0044
AGGACCUAGUGCUUGCAUAGUAUUUAGUAA,0.457 ± 0.051,0.0314 ± 0.0063
UCCACCUACACCUUGCAUAGUAUAUAGUUA,0.543 ± 0.068,0.025 ± 0.0054
UCCACCAACAGCUUGCAUAGUAUUUAGUUA,1.06 ± 0.037,0.0618 ± 0.011
UGGACCUACAGCUUGCGUAGUAUUUAGUUA,1.79 ± 0.11,0.0538 ± 0.01
UCCUGGAUGUCCUUGCAUAGUAGUUUAGUUA,0.00343 ± 0.004,0.0018 ± 0.0041

# Additional results.

Sequence,pre-steady-state target cleavage rate [1],pre-steady-state target cleavage rate [2]
UGGAGGAACAGCUUGCAUAGUAUUUAGAAA,0.364 ± 0.037,0.00934 ± 0.004
UCCUGGAUGUCGAACCAUAGUAUUUAGAUA,0.000263 ± 0.021,0.000157 ± 0.018
UCCAGCAACAGCUUGCAUAGUAUUUAGUUA,1.19 ± 0.049,0.0797 ± 0.014
UGGACCUACAGCUUGCAUAGUAUAAACAAA,0.14 ± 0.028,0.00145 ± 0.0043
UGGACCUACAGCUUGCAUAGAAUUUACAAA,0.29 ± 0.062,0.00285 ± 0.0031
UGGACCUACAGCUUGCAUACAUUUUAGUUA,0.00213 ± 0.0028,0.000283 ± 0.011
AGGACCUACAGCUUGCAAAGUAUUUAGUUA,1.26 ± 0.053,0.0478 ± 0.0089
UGGACCUACAACUUGCAUAGUAUUUAGUUA,1.5 ± 0.062,0.08 ± 0.013
UCGAGCCUACAGCUUGCAUAGUAUUUAGUUA,1.46 ± 0.074,0.0844 ± 0.016
UGGACCUACAGCAUGGAUAGUAUUUAGUUA,1.47 ± 0.1,0.0301 ± 0.0054
AGGACCUACGAGCUUGCAUAGUAUUUAGUUA,0.726 ± 0.086,0.0555 ± 0.014
UCGACCUAGAGCUUGCUUAGUAUUUAGUUA,1.34 ± 0.048,0.0282 ± 0.0063
UGGACCUAUAGCUUGCAUAGUAUUUAGUUA,1.23 ± 0.054,0.0564 ± 0.011
AGGACAUACAGCUUGCAUAGUAUUUAGUUA,1.32 ± 0.055,0.0818 ± 0.012
AGGACCUGACAGCUUGCAUAGUAUUUAGUUA,1.17 ± 0.07,0.067 ± 0.011
UGCACCUACAGCUUGGAUAGUAUUUAGUUA,1.18 ± 0.065,0.05 ± 0.008
UGGACCUACAGCAACCAUAGUAUUUACAAA,0.000856 ± 0.0065,0.000469 ± 0.01
AGGACCAACAGCUUGCAUUGUAUUUAGUUA,0.923 ± 0.044,0.0356 ± 0.0086
UGGACCUUCAGCUUGCAUAGUAUUUAGUAA,1.07 ± 0.064,0.0524 ± 0.011
UGGACCUACAGCUUGCAUACAUUUUACAAA,0.00122 ± 0.006,0.000487 ± 0.009
AGGACCUACAGCUUUGCAUAGUAUUUAGUUA,1.2 ± 0.066,0.0552 ± 0.012
AGGUGGUACAGCUUGCAUAGUAUUUAGUAA,0.645 ± 0.065,0.04 ± 0.0068
UGGACCUACAGCUUCAUAGUAUUUAGUUA,1.36 ± 0.077,0.0221 ± 0.0047
UCCUGGAUGUCGAACCAUAGUAUUAUAGUUA,0.000296 ± 0.017,0.000111 ± 0.023
UGAACCUACAGCUUGCAUAGUAUUUAGUUA,1.63 ± 0.068,0.0751 ± 0.015
UCCUGGAUCAGCUUGCAUACAUUUUAGAAA,0.00127 ± 0.0098,0.000304 ± 0.0089
AGGACCUACUGCUUCCAUAGUAUUUAGUUA,0.069 ± 0.011,0.00657 ± 0.0012

# — the supplement of paper PMC10338343
